Laboratory results published in US20050171182A1, “Methods and compositions for use in the treatment of mutant receptor tyrosine kinase driven cellular proliferative diseases” (priority 2003, published 2005).

Tests used:
[1] = test system: EOL-1 cells; details: read-out: Viability (IC50) EOL-1; exposed to inhibitor for 72 hours; MTT
Procedure: (§1) Given that mutant Flt3 activates cyclin D/CDK4 signaling, the effect of the CDK4 inhibitor arcyriaflavin on the viability of MV4-11 cells was tested. As a control in this experiment, an inhibitor for cyclin A/CDK2 and cyclin E/CDK2 (purvalanol) as well as an inhibitor for cyclin B/CDK1 (alsterpaullone) was included. […] The inhibitors were also tested against EOL-1 cells, which express the mutant fusion kinase FiplL1-PDGFROα and against K562 and BV173 cells (CML cell lines) and THP-1 and U937 cells (AML cell lines). The dilution range of the inhibitors was from 20 μM to 10 nM.
(§2) Viability of the cell lines was determined by an MTT assay, which is based on the reduction of the tetrazolium salt 3, [4,5-dimethylthiazol-2-yl]-2,5-diphenyltetrazolium bromide (MTT). Mitochondrial enzymes associated with metabolic activity reduce MTT to a formazan dye, which can be measured spectrometrically. Cells undergoing apoptosis show reduced metabolic activity resulting in reduced formation of the formazan dye.
(§3) The bone marrow environment is known to contain a multitude of cytokines. […] The cell lines were incubated with the appropriate inhibitor in the presence and absence of the cytokines GM-CSF and IL-3 (10 ng/mL each).
(§4) To test the role of MEK in the survival of MV4-11 and EOL-1 cells, a viability assay (48 hour incubation) was performed using U0126 (10 μM), an MEK specific inhibitor (see FIG. 5).

[2] = test system: THP-1 cells; details: read-out: Viability (IC50) THP-1; exposed to inhibitor for 72 hours; MTT
Procedure: as §1, §2, §3, §4

[3] = test system: MV4-11 cells; details: read-out: Viability (IC50) MV4-11; exposed to inhibitor for 72 hours; MTT
Procedure: as §1, §2, §3, §4

[4] = test system: U937 cells; assay: MTT viability assay, U937 cells; type: cell-based; details: exposed to inhibitor for 72 hours
Procedure: as §1, §2

[5] = test system: K562 cells; assay: MTT viability assay, K562 cells; type: cell-based; details: exposed to inhibitor for 72 hours
Procedure: as §1, §2

[6] = test system: BV173 cells; assay: MTT viability assay, BV173 cells; type: cell-based; details: exposed to inhibitor for 72 hours
Procedure: as §1, §2

CS(=O)(=O)O.Cc1ccc(NC(=O)c2ccc(CN3CCN(C)CC3)cc2)cc1Nc1nccc(-c2cccnc2)n1 [imatinib, 4-[(4-methyl-1-piperazinyl)methyl]-N-[4-methyl-3-[[4-(3-pyridinyl) -2-pyrimidinyl]amino-phenyl]benzamide methanesulfonate]
IC50 [1]: < 1 nM
IC50 [2]: > 10000 nM
IC50 [3]: > 10000 nM
IC50 [4]: > 10000 nM
IC50 [5]: 300 nM
IC50 [6]: 600 nM
